Assay results as given in paper PMC4376527.
Results are given in words; binding and its absence hold for the method and conditions named. Binding seen in cells or lysates may run through a third protein. Binding calls can cover weak binding; strength is not graded here.

Target: T1, Smaug (Smg) (Drosophila (endogenous in adult thoraxes)) (UniProt Q23972)
T1 sequence: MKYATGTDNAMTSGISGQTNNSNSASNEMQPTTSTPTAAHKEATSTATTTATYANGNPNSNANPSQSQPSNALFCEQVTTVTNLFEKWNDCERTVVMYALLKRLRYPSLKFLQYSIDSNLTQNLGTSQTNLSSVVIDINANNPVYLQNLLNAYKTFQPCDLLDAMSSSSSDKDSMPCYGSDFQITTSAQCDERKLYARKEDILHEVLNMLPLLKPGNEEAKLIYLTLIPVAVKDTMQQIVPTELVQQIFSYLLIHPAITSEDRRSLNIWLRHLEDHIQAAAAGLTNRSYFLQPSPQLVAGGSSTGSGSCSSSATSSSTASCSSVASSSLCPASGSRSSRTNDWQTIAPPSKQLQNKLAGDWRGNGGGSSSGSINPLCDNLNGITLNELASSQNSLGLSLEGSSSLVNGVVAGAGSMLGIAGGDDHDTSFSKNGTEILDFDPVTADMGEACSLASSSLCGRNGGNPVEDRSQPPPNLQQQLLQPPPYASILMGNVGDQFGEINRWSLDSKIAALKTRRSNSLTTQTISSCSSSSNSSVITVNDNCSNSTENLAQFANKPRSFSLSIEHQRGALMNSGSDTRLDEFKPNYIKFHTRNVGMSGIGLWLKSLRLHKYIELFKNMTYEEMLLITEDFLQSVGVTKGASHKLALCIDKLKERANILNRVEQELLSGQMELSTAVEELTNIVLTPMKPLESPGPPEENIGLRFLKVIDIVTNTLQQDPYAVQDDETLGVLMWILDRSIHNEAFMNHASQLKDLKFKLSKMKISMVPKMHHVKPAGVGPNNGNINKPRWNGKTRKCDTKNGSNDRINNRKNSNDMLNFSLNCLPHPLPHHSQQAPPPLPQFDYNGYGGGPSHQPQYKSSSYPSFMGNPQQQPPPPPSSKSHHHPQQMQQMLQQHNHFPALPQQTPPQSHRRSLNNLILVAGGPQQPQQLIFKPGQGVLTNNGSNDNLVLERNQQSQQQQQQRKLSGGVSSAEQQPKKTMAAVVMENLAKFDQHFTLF
Experiment: co-IP; Smg immunoprecipitation (rabbit anti-Smg; mock IP with rabbit IgG) from UASp-CCR4-HA/Mhc-Gal4 adult thorax extracts, in the presence or the absence of RNase A; western blots with anti-Smg, anti-HA and anti-PABP2

CCR4-HA (Drosophila) (enzyme)
binding: binds
